This is an account of results in article doi:10.1101/2024.11.12.621593.

By UniProt entry, the sequences of proteins in these tests, tags left out. Where a name states a change or a piece, a line headed by the entry shows the natural chain unless it says otherwise.
UniProt Q92547: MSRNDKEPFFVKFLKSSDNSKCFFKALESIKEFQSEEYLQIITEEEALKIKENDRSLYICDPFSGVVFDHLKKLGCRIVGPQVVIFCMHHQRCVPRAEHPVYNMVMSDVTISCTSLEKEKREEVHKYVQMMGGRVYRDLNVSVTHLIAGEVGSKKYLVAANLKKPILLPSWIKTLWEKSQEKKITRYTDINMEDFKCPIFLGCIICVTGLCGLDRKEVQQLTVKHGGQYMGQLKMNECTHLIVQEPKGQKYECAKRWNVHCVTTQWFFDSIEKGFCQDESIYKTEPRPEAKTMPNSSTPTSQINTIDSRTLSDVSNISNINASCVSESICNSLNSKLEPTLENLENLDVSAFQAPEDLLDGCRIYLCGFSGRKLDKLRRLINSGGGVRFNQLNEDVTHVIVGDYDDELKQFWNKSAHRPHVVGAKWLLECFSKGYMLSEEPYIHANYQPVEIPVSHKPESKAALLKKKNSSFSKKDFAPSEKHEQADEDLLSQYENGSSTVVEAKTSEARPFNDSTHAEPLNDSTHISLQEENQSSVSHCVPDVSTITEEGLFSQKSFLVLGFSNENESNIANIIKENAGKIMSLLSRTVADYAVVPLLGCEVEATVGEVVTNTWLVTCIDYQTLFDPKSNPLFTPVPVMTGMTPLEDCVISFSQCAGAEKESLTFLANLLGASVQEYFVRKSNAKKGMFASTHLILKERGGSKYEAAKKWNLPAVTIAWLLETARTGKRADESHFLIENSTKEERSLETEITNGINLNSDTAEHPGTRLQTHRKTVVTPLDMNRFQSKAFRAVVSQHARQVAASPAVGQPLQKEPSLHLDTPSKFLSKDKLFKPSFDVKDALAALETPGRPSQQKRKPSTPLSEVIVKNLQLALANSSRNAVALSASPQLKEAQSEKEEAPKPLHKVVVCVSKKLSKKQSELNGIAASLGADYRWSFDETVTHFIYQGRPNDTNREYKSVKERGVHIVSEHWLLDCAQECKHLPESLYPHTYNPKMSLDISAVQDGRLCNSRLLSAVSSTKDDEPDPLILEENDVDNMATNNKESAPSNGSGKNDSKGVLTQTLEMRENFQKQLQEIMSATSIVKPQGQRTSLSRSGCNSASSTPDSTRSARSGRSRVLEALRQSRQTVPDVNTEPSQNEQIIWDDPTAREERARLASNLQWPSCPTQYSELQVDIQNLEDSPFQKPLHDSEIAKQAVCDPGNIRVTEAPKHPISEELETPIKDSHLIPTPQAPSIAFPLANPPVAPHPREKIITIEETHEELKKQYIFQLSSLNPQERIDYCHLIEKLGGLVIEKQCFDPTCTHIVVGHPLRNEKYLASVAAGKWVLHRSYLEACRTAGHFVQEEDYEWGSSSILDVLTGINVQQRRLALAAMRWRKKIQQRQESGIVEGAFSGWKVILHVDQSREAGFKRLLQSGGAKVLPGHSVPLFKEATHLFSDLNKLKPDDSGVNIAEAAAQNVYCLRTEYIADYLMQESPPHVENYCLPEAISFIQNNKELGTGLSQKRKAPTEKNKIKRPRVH
UniProt Q8IY92: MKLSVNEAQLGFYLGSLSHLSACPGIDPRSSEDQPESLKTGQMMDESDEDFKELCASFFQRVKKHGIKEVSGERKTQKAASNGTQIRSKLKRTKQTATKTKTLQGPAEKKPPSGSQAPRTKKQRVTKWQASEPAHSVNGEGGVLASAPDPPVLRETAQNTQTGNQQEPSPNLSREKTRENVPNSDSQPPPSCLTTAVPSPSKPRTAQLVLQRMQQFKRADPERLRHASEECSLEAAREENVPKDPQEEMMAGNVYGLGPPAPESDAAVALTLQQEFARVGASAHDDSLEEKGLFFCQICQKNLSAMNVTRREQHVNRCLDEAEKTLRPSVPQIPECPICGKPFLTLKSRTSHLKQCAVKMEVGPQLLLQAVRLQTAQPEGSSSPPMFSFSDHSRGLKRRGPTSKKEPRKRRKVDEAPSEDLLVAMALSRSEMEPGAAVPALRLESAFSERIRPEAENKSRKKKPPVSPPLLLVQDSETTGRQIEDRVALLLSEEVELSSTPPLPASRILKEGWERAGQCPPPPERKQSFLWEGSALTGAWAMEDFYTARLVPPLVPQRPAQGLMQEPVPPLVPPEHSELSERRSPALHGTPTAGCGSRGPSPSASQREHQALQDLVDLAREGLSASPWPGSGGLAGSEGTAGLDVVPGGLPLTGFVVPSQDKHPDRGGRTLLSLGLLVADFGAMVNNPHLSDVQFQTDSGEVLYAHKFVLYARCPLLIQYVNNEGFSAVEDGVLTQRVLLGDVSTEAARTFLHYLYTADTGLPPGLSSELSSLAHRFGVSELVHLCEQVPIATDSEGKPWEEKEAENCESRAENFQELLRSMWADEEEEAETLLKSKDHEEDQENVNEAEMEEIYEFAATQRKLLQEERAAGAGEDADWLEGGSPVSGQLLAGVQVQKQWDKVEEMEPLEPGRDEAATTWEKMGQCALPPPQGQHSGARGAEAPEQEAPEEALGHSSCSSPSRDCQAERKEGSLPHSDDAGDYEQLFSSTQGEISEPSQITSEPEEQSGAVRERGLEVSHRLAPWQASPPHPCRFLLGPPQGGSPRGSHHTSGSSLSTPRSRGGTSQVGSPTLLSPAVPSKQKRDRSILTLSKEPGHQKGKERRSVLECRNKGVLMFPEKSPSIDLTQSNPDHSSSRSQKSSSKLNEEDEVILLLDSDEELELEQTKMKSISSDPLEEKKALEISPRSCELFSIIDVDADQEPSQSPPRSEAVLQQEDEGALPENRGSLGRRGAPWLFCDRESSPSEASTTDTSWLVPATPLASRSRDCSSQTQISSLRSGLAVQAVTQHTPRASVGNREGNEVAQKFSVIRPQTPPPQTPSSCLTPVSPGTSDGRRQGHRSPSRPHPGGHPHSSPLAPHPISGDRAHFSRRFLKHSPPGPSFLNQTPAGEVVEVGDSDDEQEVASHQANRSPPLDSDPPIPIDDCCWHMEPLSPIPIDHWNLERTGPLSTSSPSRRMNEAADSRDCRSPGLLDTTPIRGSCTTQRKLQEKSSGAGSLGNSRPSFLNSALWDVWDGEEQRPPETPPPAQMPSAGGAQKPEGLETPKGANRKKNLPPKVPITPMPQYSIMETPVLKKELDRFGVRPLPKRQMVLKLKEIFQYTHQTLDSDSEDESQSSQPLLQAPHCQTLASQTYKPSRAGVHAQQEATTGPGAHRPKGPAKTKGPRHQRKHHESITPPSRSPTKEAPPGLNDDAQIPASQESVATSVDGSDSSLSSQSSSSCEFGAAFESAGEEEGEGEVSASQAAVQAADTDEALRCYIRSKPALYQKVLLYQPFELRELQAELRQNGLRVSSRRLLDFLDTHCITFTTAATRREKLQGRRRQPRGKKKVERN

What all share (assay): co-IP
Assay [1] deals with eGFP-TOPBP1 WT (human) (UniProt Q92547).
Assay [2] addresses eGFP-SLX4 WT (human) (UniProt Q8IY92).
The target of assay [3] is eGFP-SLX4 T1260A (human) (UniProt Q8IY92).
In assay [4] the target is eGFP-TOPBP1 BRCT 1+2 (K155E +K250E) (human) (UniProt Q92547).

No constants are given. Whether binding was seen depends on the method and setting. In cells and extracts the contact can be indirect. Some binding calls cover weakened binding; strength is not graded here.

B1: TOP3a (endogenous) (protein, UniProt Q13472 1-1001)
chain: MIFPVARYALRWLRRPEDRAFSRAAMEMALRGVRKVLCVAEKNDAAKGIADLLSNGRMRRREGLSKFNKIYEFDYHLYGQNVTMVMTSVSGHLLAHDFQMQFRKWQSCNPLVLFEAEIEKYCPENFVDIKKTLERETRQCQALVIWTDCDREGENIGFEIIHVCKAVKPNLQVLRARFSEITPHAVRTACENLTEPDQRVSDAVDVRQELDLRIGAAFTRFQTLRLQRIFPEVLAEQLISYGSCQFPTLGFVVERFKAIQAFVPEIFHRIKVTHDHKDGIVEFNWKRHRLFNHTACLVLYQLCVEDPMATVVEVRSKPKSKWRPQALDTVELEKLASRKLRINAKETMRIAEKLYTQGYISYPRTETNIFPRDLNLTVLVEQQTPDPRWGAFAQSILERGGPTPRNGNKSDQAHPPIHPTKYTNNLQGDEQRLYEFIVRHFLACCSQDAQGQETTVEIDIAQERFVAHGLMILARNYLDVYPYDHWSDKILPVYEQGSHFQPSTVEMVDGETSPPKLLTEADLIALMEKHGIGTDATHAEHIETIKARMYVGLTPDKRFLPGHLGMGLVEGYDSMGYEMSKPDLRAELEADLKLICDGKKDKFVVLRQQVQKYKQVFIEAVAKAKKLDEALAQYFGNGTELAQQEDIYPAMPEPIRKCPQCNKDMVLKTKKNGGFYLSCMGFPECRSAVWLPDSVLEASRDSSVCPVCQPHPVYRLKLKFKRGSLPPTMPLEFVCCIGGCDDTLREILDLRFSGGPPRASQPSGRLQANQSLNRMDNSQHPQPADSRQTGSSKALAQTLPPPTAAGESNSVTCNCGQEAVLLTVRKEGPNRGRQFFKCNGGSCNFFLWADSPNPGAGGPPALAYRPLGASLGCPPGPGIHLGGFGNPGDGSGSGTSCLCSQPSVTRTVQKDGPNKGRQFHTCAKPREQQCGFFQWVDENTAPGTSGAPSWTGDRGRTLESEARSKRPRASSSDMGSTAKKPRKCSLCHQPGHTRPFCPQNR
Turning to B1, the binding result in assay [1] is given as “binds”.

B2: ERCC1 (endogenous) (protein, UniProt P07992 1-297)
chain: MDPGKDKEGVPQPSGPPARKKFVIPLDEDEVPPGVAKPLFRSTQSLPTVDTSAQAAPQTYAEYAISQPLEGAGATCPTGSEPLAGETPNQALKPGAKSNSIIVSPRQRGNPVLKFVRNVPWEFGDVIPDYVLGQSTCALFLSLRYHNLHPDYIHGRLQSLGKNFALRVLLVQVDVKDPQQALKELAKMCILADCTLILAWSPEEAGRYLETYKAYEQKPADLLMEKLEQDFVSRVTECLTTVKSVNKTDSQTLLTTFGSLEQLIAASREDLALCPGLGPQKARRLFDVLHEPFLKVP
For the molecule B2, the binding entry in assay [2] and in assay [1] was “binds” in each case.

B3: MUS81 (endogenous) (protein, UniProt Q96NY9 1-551)
chain: MAAPVRLGRKRPLPACPNPLFVRWLTEWRDEATRSRRRTRFVFQKALRSLRRYPLPLRSGKEAKILQHFGDGLCRMLDERLQRHRTSGGDHAPDSPSGENSPAPQGRLAEVQDSSMPVPAQPKAGGSGSYWPARHSGARVILLVLYREHLNPNGHHFLTKEELLQRCAQKSPRVAPGSARPWPALRSLLHRNLVLRTHQPARYSLTPEGLELAQKLAESEGLSLLNVGIGPKEPPGEETAVPGAASAELASEAGVQQQPLELRPGEYRVLLCVDIGETRGGGHRPELLRELQRLHVTHTVRKLHVGDFVWVAQETNPRDPANPGELVLDHIVERKRLDDLCSSIIDGRFREQKFRLKRCGLERRVYLVEEHGSVHNLSLPESTLLQAVTNTQVIDGFFVKRTADIKESAAYLALLTRGLQRLYQGHTLRSRPWGTPGNPESGAMTSPNPLCSLLTFSDFNAGAIKNKAQSVREVFARQLMQVRGVSGEKAAALVDRYSTPASLLAAYDACATPKEQETLLSTIKCGRLQRNLGPALSRTLSQLYCSYGPLT
Regarding B3, the binding entry in assay [2], in assay [3], in assay [1] and in assay [4] was “binds” each time.
